From the supplement of paper PMC10849652
Some of the results follow.

The chains behind the UniProt entries cited, without tags or fusion partners. Where a name states a change or a piece, a line headed by the entry shows the natural chain unless it says otherwise.
UniProt Q8WV60: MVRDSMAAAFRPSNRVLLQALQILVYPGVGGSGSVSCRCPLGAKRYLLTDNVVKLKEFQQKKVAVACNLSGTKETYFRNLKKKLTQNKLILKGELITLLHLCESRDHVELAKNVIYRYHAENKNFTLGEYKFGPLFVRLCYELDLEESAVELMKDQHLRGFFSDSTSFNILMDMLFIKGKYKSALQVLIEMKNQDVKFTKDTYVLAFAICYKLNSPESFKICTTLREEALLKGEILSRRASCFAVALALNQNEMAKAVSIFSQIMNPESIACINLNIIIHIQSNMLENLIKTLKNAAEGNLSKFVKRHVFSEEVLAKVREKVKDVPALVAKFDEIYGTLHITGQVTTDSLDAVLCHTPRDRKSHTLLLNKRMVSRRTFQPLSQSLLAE
UniProt P51665: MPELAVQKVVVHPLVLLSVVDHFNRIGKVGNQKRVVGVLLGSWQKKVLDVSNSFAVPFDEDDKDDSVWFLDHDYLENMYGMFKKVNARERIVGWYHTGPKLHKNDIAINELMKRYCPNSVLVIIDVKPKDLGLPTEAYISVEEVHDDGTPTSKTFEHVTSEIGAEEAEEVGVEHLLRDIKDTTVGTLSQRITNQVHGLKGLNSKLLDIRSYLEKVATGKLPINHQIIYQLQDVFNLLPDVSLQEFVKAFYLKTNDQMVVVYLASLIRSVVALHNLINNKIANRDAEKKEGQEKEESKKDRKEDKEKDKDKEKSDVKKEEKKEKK
UniProt O75365, whole entry, looked up: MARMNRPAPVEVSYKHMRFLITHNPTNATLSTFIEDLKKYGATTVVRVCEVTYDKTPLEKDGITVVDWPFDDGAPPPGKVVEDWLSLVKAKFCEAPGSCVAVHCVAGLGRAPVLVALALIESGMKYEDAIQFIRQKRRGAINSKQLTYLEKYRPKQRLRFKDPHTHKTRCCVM
UniProt P10586, whole entry, looked up: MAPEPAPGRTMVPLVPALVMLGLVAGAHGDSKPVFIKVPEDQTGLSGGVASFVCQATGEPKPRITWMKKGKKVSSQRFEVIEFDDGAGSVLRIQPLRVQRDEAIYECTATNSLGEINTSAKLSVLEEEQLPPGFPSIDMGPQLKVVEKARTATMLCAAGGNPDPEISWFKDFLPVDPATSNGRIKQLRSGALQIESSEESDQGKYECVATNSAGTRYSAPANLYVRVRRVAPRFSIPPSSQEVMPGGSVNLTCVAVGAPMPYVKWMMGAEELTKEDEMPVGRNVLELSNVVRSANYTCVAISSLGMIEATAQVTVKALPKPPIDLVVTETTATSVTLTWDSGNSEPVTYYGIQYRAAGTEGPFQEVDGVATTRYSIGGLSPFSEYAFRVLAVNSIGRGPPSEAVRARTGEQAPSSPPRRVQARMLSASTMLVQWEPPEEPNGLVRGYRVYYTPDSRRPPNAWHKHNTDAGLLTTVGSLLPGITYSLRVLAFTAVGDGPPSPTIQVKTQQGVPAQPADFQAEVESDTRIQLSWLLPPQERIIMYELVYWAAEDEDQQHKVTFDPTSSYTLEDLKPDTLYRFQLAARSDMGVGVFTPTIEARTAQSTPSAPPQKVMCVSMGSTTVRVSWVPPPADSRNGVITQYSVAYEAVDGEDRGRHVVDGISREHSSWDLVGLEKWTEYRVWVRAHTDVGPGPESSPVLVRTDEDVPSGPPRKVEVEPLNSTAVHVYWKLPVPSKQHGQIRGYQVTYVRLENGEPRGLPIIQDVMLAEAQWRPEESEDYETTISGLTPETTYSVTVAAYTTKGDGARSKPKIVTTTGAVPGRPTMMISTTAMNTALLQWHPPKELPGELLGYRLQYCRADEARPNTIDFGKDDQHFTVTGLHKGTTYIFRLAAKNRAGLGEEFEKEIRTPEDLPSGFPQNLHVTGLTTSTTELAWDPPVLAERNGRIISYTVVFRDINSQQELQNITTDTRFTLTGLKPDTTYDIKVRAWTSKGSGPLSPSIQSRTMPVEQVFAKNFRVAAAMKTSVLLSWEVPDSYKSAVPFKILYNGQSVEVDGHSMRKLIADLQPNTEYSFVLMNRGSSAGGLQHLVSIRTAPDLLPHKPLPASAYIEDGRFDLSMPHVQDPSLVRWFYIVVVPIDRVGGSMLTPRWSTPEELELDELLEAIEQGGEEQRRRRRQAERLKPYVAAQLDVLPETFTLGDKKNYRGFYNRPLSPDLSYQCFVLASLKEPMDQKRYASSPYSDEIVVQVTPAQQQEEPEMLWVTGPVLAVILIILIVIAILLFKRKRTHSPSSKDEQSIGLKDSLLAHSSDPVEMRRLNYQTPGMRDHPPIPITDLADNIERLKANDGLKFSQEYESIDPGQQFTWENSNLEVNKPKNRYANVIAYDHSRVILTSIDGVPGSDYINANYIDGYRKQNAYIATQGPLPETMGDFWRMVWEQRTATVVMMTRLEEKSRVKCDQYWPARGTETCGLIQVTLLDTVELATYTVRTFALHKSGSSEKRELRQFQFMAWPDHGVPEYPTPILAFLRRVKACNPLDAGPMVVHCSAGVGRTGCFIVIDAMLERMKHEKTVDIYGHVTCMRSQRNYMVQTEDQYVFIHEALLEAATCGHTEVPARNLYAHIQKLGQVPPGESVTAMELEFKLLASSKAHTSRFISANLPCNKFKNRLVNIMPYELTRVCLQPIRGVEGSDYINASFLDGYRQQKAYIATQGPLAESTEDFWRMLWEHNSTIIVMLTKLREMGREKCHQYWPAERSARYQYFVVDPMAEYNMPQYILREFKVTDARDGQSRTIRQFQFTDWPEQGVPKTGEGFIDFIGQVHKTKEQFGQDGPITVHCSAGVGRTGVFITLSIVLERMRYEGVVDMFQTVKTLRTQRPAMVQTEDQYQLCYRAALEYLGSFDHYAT
UniProt Q14289, whole entry, looked up: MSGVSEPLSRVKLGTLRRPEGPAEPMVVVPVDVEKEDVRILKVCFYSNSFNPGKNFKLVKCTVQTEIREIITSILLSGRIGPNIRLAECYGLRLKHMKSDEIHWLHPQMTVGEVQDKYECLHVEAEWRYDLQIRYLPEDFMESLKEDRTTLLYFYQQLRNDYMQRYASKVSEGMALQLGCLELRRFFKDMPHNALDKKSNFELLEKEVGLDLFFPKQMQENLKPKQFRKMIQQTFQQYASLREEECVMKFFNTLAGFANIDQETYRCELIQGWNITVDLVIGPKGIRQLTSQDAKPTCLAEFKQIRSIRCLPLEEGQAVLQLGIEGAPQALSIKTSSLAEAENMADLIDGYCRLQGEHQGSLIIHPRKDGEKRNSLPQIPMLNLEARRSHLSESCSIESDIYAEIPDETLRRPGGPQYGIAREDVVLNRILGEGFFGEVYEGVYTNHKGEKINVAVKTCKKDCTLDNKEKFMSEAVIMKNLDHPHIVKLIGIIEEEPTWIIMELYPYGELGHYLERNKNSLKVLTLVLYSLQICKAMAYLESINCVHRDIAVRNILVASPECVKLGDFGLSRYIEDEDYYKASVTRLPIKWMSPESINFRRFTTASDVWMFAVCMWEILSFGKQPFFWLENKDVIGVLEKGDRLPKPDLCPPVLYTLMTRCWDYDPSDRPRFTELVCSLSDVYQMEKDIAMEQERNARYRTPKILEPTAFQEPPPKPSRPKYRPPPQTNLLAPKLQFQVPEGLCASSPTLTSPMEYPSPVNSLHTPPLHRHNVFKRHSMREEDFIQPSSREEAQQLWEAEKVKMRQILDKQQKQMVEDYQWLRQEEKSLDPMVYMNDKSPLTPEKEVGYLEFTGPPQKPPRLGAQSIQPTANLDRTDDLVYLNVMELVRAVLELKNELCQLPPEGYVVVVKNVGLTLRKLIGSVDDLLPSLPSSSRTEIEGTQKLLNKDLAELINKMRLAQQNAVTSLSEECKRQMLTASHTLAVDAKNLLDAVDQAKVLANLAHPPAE
UniProt P43378: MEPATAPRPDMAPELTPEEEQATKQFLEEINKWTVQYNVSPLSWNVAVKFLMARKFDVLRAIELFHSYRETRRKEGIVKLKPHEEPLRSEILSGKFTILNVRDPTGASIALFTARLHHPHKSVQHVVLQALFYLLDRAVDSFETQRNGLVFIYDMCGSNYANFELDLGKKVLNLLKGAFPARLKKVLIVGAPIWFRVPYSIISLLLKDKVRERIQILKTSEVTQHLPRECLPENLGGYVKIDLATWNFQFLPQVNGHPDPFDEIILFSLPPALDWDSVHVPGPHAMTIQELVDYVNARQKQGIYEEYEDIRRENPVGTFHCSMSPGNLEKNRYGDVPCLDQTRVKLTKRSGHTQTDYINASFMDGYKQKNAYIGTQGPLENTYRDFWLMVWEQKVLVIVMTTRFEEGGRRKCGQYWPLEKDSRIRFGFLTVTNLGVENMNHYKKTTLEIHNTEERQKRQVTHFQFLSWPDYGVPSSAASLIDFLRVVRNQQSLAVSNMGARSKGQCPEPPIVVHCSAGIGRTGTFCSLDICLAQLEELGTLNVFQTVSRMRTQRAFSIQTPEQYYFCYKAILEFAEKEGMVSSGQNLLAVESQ
UniProt P78330: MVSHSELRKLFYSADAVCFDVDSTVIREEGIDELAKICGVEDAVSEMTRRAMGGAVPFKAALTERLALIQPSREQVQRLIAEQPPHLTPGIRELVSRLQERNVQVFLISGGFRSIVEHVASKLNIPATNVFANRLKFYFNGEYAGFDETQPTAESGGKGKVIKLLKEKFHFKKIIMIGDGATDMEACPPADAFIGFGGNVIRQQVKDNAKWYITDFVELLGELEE
UniProt Q14558: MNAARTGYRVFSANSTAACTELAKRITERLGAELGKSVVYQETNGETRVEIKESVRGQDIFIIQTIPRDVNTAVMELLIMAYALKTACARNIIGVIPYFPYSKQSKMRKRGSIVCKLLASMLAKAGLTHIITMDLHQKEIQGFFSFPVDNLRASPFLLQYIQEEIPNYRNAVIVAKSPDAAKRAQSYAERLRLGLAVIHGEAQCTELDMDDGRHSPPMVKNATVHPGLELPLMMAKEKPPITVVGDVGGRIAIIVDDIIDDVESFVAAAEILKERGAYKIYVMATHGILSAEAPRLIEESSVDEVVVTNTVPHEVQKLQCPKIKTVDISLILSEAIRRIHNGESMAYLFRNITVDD
UniProt Q86Y79: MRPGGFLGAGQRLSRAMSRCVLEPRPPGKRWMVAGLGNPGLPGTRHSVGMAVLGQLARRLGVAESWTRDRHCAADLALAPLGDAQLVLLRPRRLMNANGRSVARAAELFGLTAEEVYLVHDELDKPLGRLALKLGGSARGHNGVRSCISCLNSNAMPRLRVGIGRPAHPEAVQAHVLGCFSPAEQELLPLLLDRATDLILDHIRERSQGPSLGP
UniProt Q99952: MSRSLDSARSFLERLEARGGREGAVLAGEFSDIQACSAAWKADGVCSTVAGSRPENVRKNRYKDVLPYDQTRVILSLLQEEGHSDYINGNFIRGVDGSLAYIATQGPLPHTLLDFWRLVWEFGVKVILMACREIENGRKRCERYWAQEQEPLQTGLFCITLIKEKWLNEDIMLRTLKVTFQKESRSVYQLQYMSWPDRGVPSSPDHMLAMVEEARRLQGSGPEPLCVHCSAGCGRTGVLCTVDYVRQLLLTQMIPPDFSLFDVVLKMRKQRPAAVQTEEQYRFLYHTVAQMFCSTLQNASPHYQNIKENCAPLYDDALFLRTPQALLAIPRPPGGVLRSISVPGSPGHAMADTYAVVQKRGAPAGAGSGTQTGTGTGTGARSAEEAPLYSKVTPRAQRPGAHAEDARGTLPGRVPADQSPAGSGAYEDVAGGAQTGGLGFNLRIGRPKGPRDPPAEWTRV
UniProt Q86YD1: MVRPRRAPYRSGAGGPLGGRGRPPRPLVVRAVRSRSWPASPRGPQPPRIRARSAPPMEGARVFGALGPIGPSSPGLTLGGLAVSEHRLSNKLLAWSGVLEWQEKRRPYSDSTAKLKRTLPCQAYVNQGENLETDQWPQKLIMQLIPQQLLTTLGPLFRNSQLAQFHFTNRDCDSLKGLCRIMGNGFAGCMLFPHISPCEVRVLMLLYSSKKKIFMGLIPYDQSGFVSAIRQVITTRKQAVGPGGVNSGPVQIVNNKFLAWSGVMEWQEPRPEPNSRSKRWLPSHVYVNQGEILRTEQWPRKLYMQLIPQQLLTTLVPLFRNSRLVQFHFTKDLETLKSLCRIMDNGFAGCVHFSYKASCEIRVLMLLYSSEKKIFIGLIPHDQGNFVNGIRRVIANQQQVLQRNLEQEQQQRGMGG

How the values were obtained:
Assay in all cases: log2 fold change, soluble protein after heating vs DMSO (PISA); higher = thermal stabilisation; K562 lysate, 10 uM; active = over 0.2 and 3.5 SD of the protein, either way, in both replicates (recomputed)
vemurafenib = compound: CCCS(=O)(=O)Nc1ccc(F)c(C(=O)c2c[nH]c3ncc(-c4ccc(Cl)cc4)cc23)c1F [vemurafenib]
Outline: (§1)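 A 30 min treatment with 10 μM compound was applied to crude K562 extract at 1 mg/mL protein in PBS pH 7.4 with 1 mM MgCl2. Heating for 3 min spanned 48°C-58°C, after which aliquots were pooled, adjusted to 0.5% NP-40 at 4°C and spun at 21,000xg for 90 min. TMTpro 16plex LC-MS/MS of the supernatant, with channel sums equalised, gave values recorded as log-two fold change in thermal stability against solvent controls, from duplicates.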

[1] = compound: CCCS(=O)(=O)Nc1ccc(F)c(C(=O)c2c[nH]c3ncc(Cl)cc23)c1F
Outline: as §1

[2] = compound: CC[C@@H]1C(=O)N(C)c2cnc(Nc3ccc(C(=O)NC4CCN(C)CC4)cc3OC)nc2N1C1CCCC1
Outline: as §1

volasertib = compound: CC[C@@H]1C(=O)N(C)c2cnc(Nc3ccc(C(=O)N[C@H]4CC[C@H](N5CCN(CC6CC6)CC5)CC4)cc3OC)nc2N1C(C)C [volasertib]
Outline: as §1

[3] = compound: CCn1c(C(=O)N(C2CC2)C2CC2)cc2c3c(ncn3C)c(Nc3cc(C)n(C)n3)nc21
Outline: as §1

saracatinib = compound: CN1CCN(CCOc2cc(OC3CCOCC3)c3c(Nc4c(Cl)ccc5c4OCO5)ncnc3c2)CC1 [saracatinib]
Outline: as §1

sotrastaurin = compound: CN1CCN(c2nc(C3=C(c4c[nH]c5ccccc45)C(=O)NC3=O)c3ccccc3n2)CC1 [sotrastaurin]
Outline: as §1

Tubastatin A = compound: CN1CCc2c(c3ccccc3n2Cc2ccc(C(=O)NO)cc2)C1 [Tubastatin A]
Outline: as §1

[4] = compound: CNC(=O)C1=CC=CC=C1NC2=NC(=NC=C2Cl)NC3=C(C=C(C=C3)N4CCOCC4)OC
Outline: as §1

defactinib = compound: CNC(=O)c1ccc(Nc2ncc(C(F)(F)F)c(NCc3nccnc3N(C)S(C)(=O)=O)n2)cc1 [defactinib]
Outline: as §1

[5] = compound: CNc1nc(-c2ccc3c(N)n[nH]c3c2)cc(N2C[C@@H](C(=O)NC3CCCCC3)CC[C@H]2C)n1
Outline: as §1

encorafenib = compound: COC(=O)N[C@@H](C)CNc1nccc(-c2cn(C(C)C)nc2-c2cc(Cl)cc(NS(C)(=O)=O)c2F)n1 [encorafenib]
Outline: as §1

[6] = compound: COC(=O)[C@H](CCSC)NC(=O)C1=C(C=C(C=C1)NC[C@H](CS)N)C2=CC=CC=C2
Outline: as §1

alisertib = compound: COc1cc(Nc2ncc3c(n2)-c2ccc(Cl)cc2C(c2c(F)cccc2OC)=NC3)ccc1C(=O)O [alisertib]
Outline: as §1

[7] = compound: COc1cc2nc(-c3cc(F)ccc3O)nc(N[C@@H]3CNC[C@H]3C(C)(C)O)c2cc1OC
Outline: as §1

gefitinib = compound: COc1cc2ncnc(Nc3ccc(F)c(Cl)c3)c2cc1OCCCN1CCOCC1 [gefitinib]
Outline: as §1

barasertib = compound: CCN(CCCOc1ccc2c(Nc3cc(CC(=O)Nc4cccc(F)c4)[nH]n3)ncnc2c1)CCOP(=O)(O)O [barasertib]
Outline: as §1

[8] = compound: CCn1cc(-c2ccnc3[nH]c(-c4cccc(CN(C)C)c4)cc23)c(-c2ccc(NC(=O)N(C)C)cc2)n1
Outline: as §1

[9] = compound: CN1CCC(CNc2ccc3ncc(-c4cccc(OC(F)(F)F)c4)n3n2)CC1
Outline: as §1

alvocidib = compound: CN1CC[C@H](c2c(O)cc(O)c3c(=O)cc(-c4ccccc4Cl)oc23)[C@H](O)C1 [alvocidib]
Outline: as §1

Measured: log2 fold change

PTCD2 (UniProt Q8WV60)
inactive: vemurafenib -0.202 | [1] -0.172 | [2] -0.089 | volasertib 0.079 | [3] 0.07 | saracatinib -0.002 | sotrastaurin 0.055 | Tubastatin A -0.178 | [4] -0.079 | defactinib -0.046 | [5] 0.062 | encorafenib -0.081 | [6] 0 | alisertib 0.101 | [7] 0.243 | gefitinib 0.07

PRRC2C isoform 7 (UniProt Q9Y520)
inactive: vemurafenib 0.009 | [1] 0.01 | barasertib 0.019 | [2] 0.078 | volasertib 0.013 | [3] 0.004 | [8] -0.009 | [9] 0.023 | saracatinib 0.011 | sotrastaurin -0.011 | alvocidib -0.036 | Tubastatin A 0.004 | [4] -0.017 | defactinib 0.001 | [5] 0.027 | encorafenib 0.04 | [6] -0.072 | alisertib -0.002 | [7] 0.019 | gefitinib -0.011

PSMD7 (UniProt P51665)
inactive: vemurafenib -0.01 | [1] -0.004 | barasertib 0.023 | [2] 0.02 | volasertib -0.01 | [3] 0.001 | [8] -0.018 | [9] 0.013 | saracatinib 0.008 | sotrastaurin 0.031 | alvocidib 0.024 | Tubastatin A 0.021 | [4] -0.031 | defactinib 0.002 | [5] -0.007 | encorafenib -0.015 | [6] 0.014 | alisertib -0.013 | [7] 0.016 | gefitinib -0.026

PTP4A3 (UniProt O75365)
inactive: vemurafenib 0.08 | [1] 0.038 | [2] 0.026 | volasertib -0.009 | saracatinib -0.253 | sotrastaurin -0.037 | [4] 0.131 | defactinib -0.076 | [5] 0.134 | encorafenib -0.09 | [6] 0.276 | [7] -0.147

PSMA3 (UniProt H0YJ03)
inactive: vemurafenib -0.015 | [1] 0 | [2] 0.13 | volasertib 0.002 | [3] -0.046 | saracatinib 0.025 | sotrastaurin 0.017 | Tubastatin A 0.106 | [4] 0.073 | defactinib -0.185 | [5] 0.126 | encorafenib 0 | [6] -0.007 | [7] 0.137

PRPS1 (UniProt B1ALA9)
inactive: vemurafenib 0.009 | [1] 0.003 | barasertib 0.018 | [2] 0.03 | volasertib 0.025 | [3] 0 | [8] -0.001 | [9] 0.036 | saracatinib -0.046 | sotrastaurin -0.073 | alvocidib 0.009 | Tubastatin A 0.026 | [4] 0.009 | defactinib 0.034 | [5] 0.028 | encorafenib 0.035 | [6] -0.064 | alisertib 0.037 | [7] 0.01 | gefitinib -0.05

PRUNE2 isoform 3 (UniProt Q8WUY3)
inactive: vemurafenib 0.083 | [1] 0.047 | barasertib 0.04 | volasertib 0.086 | [3] -0.135 | saracatinib 0.019 | sotrastaurin 0.035 | Tubastatin A 0.016 | [4] -0.023 | defactinib 0.103 | [5] 0.146 | alisertib -0.066 | [7] -0.029 | gefitinib -0.151

PTPRF (UniProt P10586)
inactive: vemurafenib 0.263 | [8] -0.015 | [9] 0.068 | sotrastaurin 0.074 | alvocidib -0.024 | defactinib 0.154

PTK2B (UniProt Q14289)
inactive: vemurafenib 0.001 | [1] -0.03 | barasertib -0.013 | [2] 0.118 | volasertib 0.022 | [3] -0.044 | [8] 0.001 | [9] 0.107 | saracatinib 0.019 | sotrastaurin 0.033 | Tubastatin A -0.071 | defactinib 0.315 | [5] -0.063 | encorafenib -0.048 | [6] -0.007 | alisertib 0.093 | [7] 0.103 | gefitinib -0.056
active: [4] 0.401

2 consecutive entries already listed:
PRPS1 (UniProt B1ALA9)
inactive: vemurafenib 0.009 | [1] 0.003 | barasertib 0.018 | [2] 0.03 | volasertib 0.025 | [3] 0 | [8] -0.001 | [9] 0.036 | saracatinib -0.046 | sotrastaurin -0.073 | alvocidib 0.009 | Tubastatin A 0.026 | [4] 0.009 | defactinib 0.034 | [5] 0.028 | encorafenib 0.035 | [6] -0.064 | alisertib 0.037 | [7] 0.01 | gefitinib -0.05

PRUNE2 isoform 3 (UniProt Q8WUY3)
inactive: vemurafenib 0.083 | [1] 0.047 | barasertib 0.04 | volasertib 0.086 | [3] -0.135 | saracatinib 0.019 | sotrastaurin 0.035 | Tubastatin A 0.016 | [4] -0.023 | defactinib 0.103 | [5] 0.146 | alisertib -0.066 | [7] -0.029 | gefitinib -0.151

(listing goes on)

PSMD4 (UniProt Q5VWC4)
inactive: vemurafenib 0.069 | barasertib -0.001 | [3] 0.039 | [8] -0.188 | [9] -0.05 | sotrastaurin 0.038 | alvocidib 0.018 | Tubastatin A 0.095 | [4] 0.164 | defactinib -0.1 | alisertib 0.065 | gefitinib -0.029

PSMF1 (UniProt Q5QPM7)
inactive: vemurafenib -0.001 | [2] 0.274 | [8] -0.075 | [9] -0.021 | sotrastaurin 0.006 | alvocidib -0.088 | defactinib -0.002 | encorafenib -0.207 | [6] -0.092

PTPN9 (UniProt P43378)
inactive: vemurafenib 0.09 | [1] -0.133 | barasertib 0.088 | [2] 0.239 | volasertib -0.253 | [3] -0.282 | [8] 0.082 | [9] -0.035 | saracatinib 0.064 | sotrastaurin -0.19 | alvocidib 0.026 | Tubastatin A 0.191 | [4] 0.104 | defactinib 0.108 | [5] -0.13 | encorafenib -0.167 | [6] 0.286 | alisertib 0.001 | [7] 0.111 | gefitinib -0.374

PSPH (UniProt P78330)
inactive: vemurafenib 0.014 | [1] -0.021 | barasertib -0.007 | [2] 0.017 | volasertib 0.023 | [3] -0.037 | [8] -0.061 | [9] 0.044 | saracatinib -0.018 | sotrastaurin 0.006 | alvocidib -0.038 | Tubastatin A 0.076 | [4] -0.006 | defactinib -0.021 | [5] 0.058 | encorafenib -0.031 | [6] -0.015 | alisertib -0.031 | [7] 0.015 | gefitinib 0.015

PRPSAP1 isoform 2 (UniProt Q14558)
inactive: vemurafenib 0.029 | [1] -0.003 | barasertib -0.04 | [2] 0.053 | volasertib -0.001 | [3] -0.035 | [8] -0.036 | [9] 0.02 | saracatinib -0.014 | sotrastaurin -0.006 | alvocidib 0.016 | Tubastatin A 0.02 | [4] 0.001 | defactinib 0.007 | [5] 0.023 | encorafenib -0.029 | [6] -0.055 | alisertib 0.007 | [7] -0.009 | gefitinib -0.02

PTRH1 (UniProt Q86Y79)
inactive: vemurafenib 0.189 | [2] 0.049 | [3] -0.009 | [8] -0.473 | [9] -0.033 | sotrastaurin -0.061 | alvocidib -0.155 | Tubastatin A -0.07 | [4] 0.123 | defactinib -0.302 | encorafenib -0.026 | [6] 0.033

PTPN18 (UniProt Q99952)
inactive: vemurafenib 0.046 | [1] 0.008 | barasertib 0.248 | [2] -0.033 | volasertib 0.053 | [3] -0.075 | saracatinib -0.092 | sotrastaurin 0.001 | Tubastatin A -0.029 | [4] 0.013 | defactinib -0.045 | [5] 0.142 | encorafenib 0.013 | [6] 0.145 | alisertib 0.001 | [7] 0.045 | gefitinib 0.006

PTOV1 (UniProt Q86YD1)
inactive: vemurafenib 0.18 | [8] 0.063 | [9] -0.013 | saracatinib -0.071 | sotrastaurin 0.068 | alvocidib -0.051 | defactinib -0.053 | [5] 0.136

PSMB2, A0A087WVV1
inactive: vemurafenib 0.098 | barasertib 0.136 | [2] 0.053 | [8] -0.015 | [9] 0.057 | sotrastaurin 0.15 | alvocidib -0.302 | [4] -0.024 | defactinib -0.176 | encorafenib -0.033 | [6] -0.043

PSMC3 (UniProt E9PLG2)
inactive: vemurafenib -0.088 | defactinib -0.008
